# Reference: paper PMC7819943, “Rice protein-binding microarrays: a tool to detect cis-acting elements near promoter regions in rice”
# By UniProt entry, the sequences of proteins in these tests, tags left out.
# UniProt Q0JBA9, entry or part of it: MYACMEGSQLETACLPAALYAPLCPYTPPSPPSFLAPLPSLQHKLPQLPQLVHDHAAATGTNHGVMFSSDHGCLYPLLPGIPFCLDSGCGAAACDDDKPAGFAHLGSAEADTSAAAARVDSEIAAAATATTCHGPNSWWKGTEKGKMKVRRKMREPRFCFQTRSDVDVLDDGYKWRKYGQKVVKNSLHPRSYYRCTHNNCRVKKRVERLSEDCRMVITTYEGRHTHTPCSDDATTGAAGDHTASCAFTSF
# This is one part of the list.
# Molecular target: OsWRKY34 (Oryza sativa, UniProt Q0JBA9 1-250)
# Test: protein-binding microarray (RPBM); PBS, 2% BSA, 51.3 ng/ul salmon testes DNA, 50 uM zinc acetate, 200 nM TF, 25 C, 1 h; high values mean tight binding
# Conditions: protein: recombinant; tags: N-terminal polyhistidine and DsRed monomer fusion (pET32a); label: CyDye5-dUTP incorporated in the synthesized complementary strand; 3' TTTTT single-stranded linker to array surface; dsDNA, one strand shown
# In short: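 For the binding signal, per-feature fluorescence intensity was read in arbitrary units on an Axon 4000B scanner. Before scanning, a 2% BSA-blocked custom Agilent array made double-stranded with Cy5-dUTP was washed after 1 h at 25 °C with 200 nM protein and 50 µM zinc acetate. The proteins were Ni–NTA-purified transcription factors with N-terminal polyhistidine and DsRed fusions, expressed in E. coli BL21-CodonPlus.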
row,Sequence,binding signal
1,TCTACGCCGCCGGCGGCGGCGGCGGCGGCAACTGCGGCGCCGGAGTCACCTAGTGCAG,47800 fluorescence intensity (a.u.)
2,GTCCCCACTACTGCTCATCATTCCATCGATTATTCTTGCCCGGAGTCACCTAGTGCAG,15100 fluorescence intensity (a.u.)
3,GTCCGGCGGTTCGCTGATCCACTCTCTCGTTTTTTTGTTTCGGAGTCACCTAGTGCAG,9640 fluorescence intensity (a.u.)
4,TGCTAAACCTGTGGTGTTAAATCTGGCTGGTTGCCTGTCTCGGAGTCACCTAGTGCAG,9280 fluorescence intensity (a.u.)
5,GTCGAGGAATCATTTCACCTCTGCCTCTTGTCAGCTTCGCCGGAGTCACCTAGTGCAG,11000 fluorescence intensity (a.u.)
6,GCGTTGGTGGCTTCTCGGTGATGTTTTTATTTTTCTTCCCCGGAGTCACCTAGTGCAG,11800 fluorescence intensity (a.u.)
7,GGGTAGTTGTTGGCCAAGTAGGCTGGCGTCCGCGCTTTTCCGGAGTCACCTAGTGCAG,8780 fluorescence intensity (a.u.)
8,GCTGTCCTTGCCTGGAGCTCGAGCTCTGAGCTACAGCTGCCGGAGTCACCTAGTGCAG,9120 fluorescence intensity (a.u.)
9,GTCCTCCTTCGCCGCTTACCACGCCGCCTCTATCTCCGCCCGGAGTCACCTAGTGCAG,10400 fluorescence intensity (a.u.)
10,CGTCTCGTCTCTGTCTCTCGGCCCACCGCTTCCATCGTTCCGGAGTCACCTAGTGCAG,14900 fluorescence intensity (a.u.)
11,TTCAACTTTGATTTATGCAATATTCACCGTTTATCCTAGACGGAGTCACCTAGTGCAG,8970 fluorescence intensity (a.u.)
12,TCATATATGAGTTTGTGGGTGTGGGTGTTTGCGAGCTTTTCGGAGTCACCTAGTGCAG,30700 fluorescence intensity (a.u.)
13,AAGCCGCCATCACCACCAGTGCCGTGATCATCATACACAGCGGAGTCACCTAGTGCAG,9580 fluorescence intensity (a.u.)
14,CCGATTCCAAATGTTCTCATCCTTATTCTTATCGACTTTTCGGAGTCACCTAGTGCAG,8940 fluorescence intensity (a.u.)
15,GCCCCAGCTTATCTGTCCACCTCACTCAGTCTCATCCCCACGGAGTCACCTAGTGCAG,8440 fluorescence intensity (a.u.)
16,AGTCCTATTTCCACTGTTTATATGAAAAAAAAGCTACTTCCGGAGTCACCTAGTGCAG,8430 fluorescence intensity (a.u.)
17,CGTTTGTCTCGCCATCTCTTAATTCCTTACGTTGACCATTCGGAGTCACCTAGTGCAG,14500 fluorescence intensity (a.u.)
18,GGTTGGTAGAGATAATTAGTACAGATCCTTCTCTTTTTCTCGGAGTCACCTAGTGCAG,13300 fluorescence intensity (a.u.)
19,TTGTCCGTCCTCACATCACCTTGCCGCCCTCGGGATCTACCGGAGTCACCTAGTGCAG,10500 fluorescence intensity (a.u.)
20,ATCTATTATTCCGCACTCTAGCGCTACCGTAAACATTTCTCGGAGTCACCTAGTGCAG,10800 fluorescence intensity (a.u.)
21,TGAACTGTACTATTAAACTTTCTCTTATGTATTGGGCTGTCGGAGTCACCTAGTGCAG,9360 fluorescence intensity (a.u.)

row,Sequence,binding signal
1,TCCCATCTTCGGTGACATCCTGTCTTTGCTTCTTAACTATCGGAGTCACCTAGTGCAG,10900 fluorescence intensity (a.u.)
2,TGGTTCTTTGTGTTATTCTCCTGTTGCCTGCCCCGAACAACGGAGTCACCTAGTGCAG,11200 fluorescence intensity (a.u.)
3,GACTTAGGGTGTGTTTGGTTCGTGGTCAAGGCTGGATAGGCGGAGTCACCTAGTGCAG,10500 fluorescence intensity (a.u.)
4,CGGCGTGGGAGGGGTCGATGGGGCGCTTGGCGGCGGCGGCCGGAGTCACCTAGTGCAG,9660 fluorescence intensity (a.u.)
5,TATTAATTCCAACAGCCATGCTTTATAATATCTCATCTCTCGGAGTCACCTAGTGCAG,8710 fluorescence intensity (a.u.)
6,ATCTCTCATGCTGTCATGCTTGTGGTGCACCTAGCAATTCCGGAGTCACCTAGTGCAG,11700 fluorescence intensity (a.u.)
7,GCTATATGCAATGCTTGTTTCCATGGTTCTTCTAGGTACACGGAGTCACCTAGTGCAG,10700 fluorescence intensity (a.u.)
8,AGGTGAGAGGAGGAGAGAGACGGGTTTAGGGCTTTAGGAGCGGAGTCACCTAGTGCAG,8040 fluorescence intensity (a.u.)
9,TTTTAACAATGCCGTTGTATTTTGGTTTGGTTGTGAGAATCGGAGTCACCTAGTGCAG,8980 fluorescence intensity (a.u.)
10,TCTGTAGTACTCCACATCATACGCTGGCTGGACGTCATTACGGAGTCACCTAGTGCAG,8030 fluorescence intensity (a.u.)
11,TCAATCAACATCATTATATTAATCCATATTTACCCTATTTCGGAGTCACCTAGTGCAG,8160 fluorescence intensity (a.u.)
12,ACACCCGGCTGCTACCGCACCTTTATTTACAGCTCCTCCTCGGAGTCACCTAGTGCAG,8800 fluorescence intensity (a.u.)
13,GAATTTATCCATGGTATGCGTCTACTAAGTGGTGATTCCTCGGAGTCACCTAGTGCAG,8050 fluorescence intensity (a.u.)
14,ACGTGTCACCTTCTTATTCGCTGGGTTTTTTCTGGTGGGTCGGAGTCACCTAGTGCAG,8770 fluorescence intensity (a.u.)
15,CTCACTCCACGCACCATTTTCTTCTTCTTCTTCTTCGTCTCGGAGTCACCTAGTGCAG,11400 fluorescence intensity (a.u.)
16,CGTTGACTTTTCTAAACATGTTTGACCGTTCGTCTTATTCCGGAGTCACCTAGTGCAG,28400 fluorescence intensity (a.u.)
17,TTAACATAACCATGGCTCAACATTCAAGTTCTCTCTTCTCCGGAGTCACCTAGTGCAG,8660 fluorescence intensity (a.u.)
18,CCATTGGTTCCCTTTCCAATTTCACCTCGCCCAACCCTATCGGAGTCACCTAGTGCAG,8500 fluorescence intensity (a.u.)
19,TTTTTCCAACACTTGACTACCCATCTTACTTAAATTTTTTCGGAGTCACCTAGTGCAG,9960 fluorescence intensity (a.u.)
20,GATGTTCTCCCTATGAATTTGCTGCTCTGATCCCAGGTCTCGGAGTCACCTAGTGCAG,8220 fluorescence intensity (a.u.)
21,ATGCTCTGATATTTTCATGTGTTCTTTTTTTTTCTTCTTTCGGAGTCACCTAGTGCAG,9140 fluorescence intensity (a.u.)

# Pulled one by one from the entries so far:
row,Sequence,binding signal
12,ACACCCGGCTGCTACCGCACCTTTATTTACAGCTCCTCCTCGGAGTCACCTAGTGCAG,8800 fluorescence intensity (a.u.)
18,GGTTGGTAGAGATAATTAGTACAGATCCTTCTCTTTTTCTCGGAGTCACCTAGTGCAG,13300 fluorescence intensity (a.u.)
4,TGCTAAACCTGTGGTGTTAAATCTGGCTGGTTGCCTGTCTCGGAGTCACCTAGTGCAG,9280 fluorescence intensity (a.u.)
13,AAGCCGCCATCACCACCAGTGCCGTGATCATCATACACAGCGGAGTCACCTAGTGCAG,9580 fluorescence intensity (a.u.)
3,GTCCGGCGGTTCGCTGATCCACTCTCTCGTTTTTTTGTTTCGGAGTCACCTAGTGCAG,9640 fluorescence intensity (a.u.)
10,CGTCTCGTCTCTGTCTCTCGGCCCACCGCTTCCATCGTTCCGGAGTCACCTAGTGCAG,14900 fluorescence intensity (a.u.)
15,GCCCCAGCTTATCTGTCCACCTCACTCAGTCTCATCCCCACGGAGTCACCTAGTGCAG,8440 fluorescence intensity (a.u.)

# Remaining list, next part.

row,Sequence,binding signal
1,TGACCATGAAATTTCACGATAGCACTACAGCAACGACGGCCGGAGTCACCTAGTGCAG,8420 fluorescence intensity (a.u.)
2,TAATCATGTTTGCTGAATAATTAATTGTTTGCCGTCTGCTCGGAGTCACCTAGTGCAG,9200 fluorescence intensity (a.u.)
3,ACCTTTTCTCTTTCTCTCTTCTATGTCCACTGCCGAGAGGCGGAGTCACCTAGTGCAG,11000 fluorescence intensity (a.u.)
4,TCCCCGCCTACACGACCAGTTCCTGGTTTCTGCTGCCTTCCGGAGTCACCTAGTGCAG,8220 fluorescence intensity (a.u.)
5,GCACATTACTCGCCTCCGCCGTTTTGGATTCTTCCCTGATCGGAGTCACCTAGTGCAG,9380 fluorescence intensity (a.u.)
6,CTCGGACGCTTTCTCGCCGCTGCTCACCTTCCGTTCCCTCCGGAGTCACCTAGTGCAG,8860 fluorescence intensity (a.u.)
7,ATAAAGTTATGGCCAATTTTGTGTTCTATATGCTATAATACGGAGTCACCTAGTGCAG,9740 fluorescence intensity (a.u.)
8,TCCTGGTTTGCGCCGAAAGACTGCAATTTTCTTGAGTTCTCGGAGTCACCTAGTGCAG,8150 fluorescence intensity (a.u.)
9,TTGTACTGTTGTGTCATCGCGGTCCCTAAACTCGCAAATTCGGAGTCACCTAGTGCAG,9820 fluorescence intensity (a.u.)
10,TCCTACGCCACCATTTCTTGCAATCTTGCAGCTTTTCATCCGGAGTCACCTAGTGCAG,12800 fluorescence intensity (a.u.)
11,AATGTTTGACGCCGTTGACTTTTTTAAAAATGTTTGGCCGCGGAGTCACCTAGTGCAG,29800 fluorescence intensity (a.u.)
12,CCATCTGAAGCCGTGCGCCCGTGCCAACGTGCCTGCCTACCGGAGTCACCTAGTGCAG,8480 fluorescence intensity (a.u.)
13,TTCCGCCGCCGCCGATTCCGTCTCAGCCGTCGATTCCGCCCGGAGTCACCTAGTGCAG,9630 fluorescence intensity (a.u.)
14,TGTGGTTGACTGGCGCGTGGGTAGGTGGGGCCCAGGTGTCCGGAGTCACCTAGTGCAG,10100 fluorescence intensity (a.u.)
15,TGATGAGTTGGGCCCTCGTTTTGTGGATTGGTGGGGAACACGGAGTCACCTAGTGCAG,8670 fluorescence intensity (a.u.)
16,TCTTGGCTGGTTGGTCTTGGTCTTGTGGTGCCTTTTTCCTCGGAGTCACCTAGTGCAG,14400 fluorescence intensity (a.u.)
17,GATTAACCAGTTAGTACTATTGGTCGACCGTTAATTAATACGGAGTCACCTAGTGCAG,8370 fluorescence intensity (a.u.)
18,ATCCTGATCAGATTCTGAACTCCTTTTCTCTCTGCGCCCACGGAGTCACCTAGTGCAG,8480 fluorescence intensity (a.u.)
19,TCTTATCCATTCGCGCCGTGTATTACTAAGTGATTGTTTACGGAGTCACCTAGTGCAG,8380 fluorescence intensity (a.u.)
20,CTACATTCATCTTCTCCATTTCTCTTTTGTTTATTTGTTTCGGAGTCACCTAGTGCAG,9170 fluorescence intensity (a.u.)
21,GTGGGTGGTTGGTGGTGGTGGTGGTGGTGGTGATCTTTGGCGGAGTCACCTAGTGCAG,23900 fluorescence intensity (a.u.)

row,Sequence,binding signal
1,TGTTTTCATGTTCCCTTCTATGTTCAATTTGATTCTTTTTCGGAGTCACCTAGTGCAG,9000 fluorescence intensity (a.u.)
2,TCCTCCTCGCCTCGCGCTCCTCGTCCCTTCTCTCGTCCCACGGAGTCACCTAGTGCAG,9460 fluorescence intensity (a.u.)
3,GTTGTATGTCCAGATTCATAATATTATAAAATATCTTATTCGGAGTCACCTAGTGCAG,9710 fluorescence intensity (a.u.)
4,TCGGTTGGTTGGGAATTTCCATGACTATTTTCACCTATAACGGAGTCACCTAGTGCAG,8650 fluorescence intensity (a.u.)
5,TTGTGGTTGGTTGTATCGTGATCCTGAGTGTGAAAAAACACGGAGTCACCTAGTGCAG,8050 fluorescence intensity (a.u.)
6,GTGTGTATGACAGGTTGATGTGATAGAAAAGGACTAAAGTCGGAGTCACCTAGTGCAG,8110 fluorescence intensity (a.u.)
7,AGAGATAGATAGTTGAAATTGTTTTTTTTCTAGGGAGGGGCGGAGTCACCTAGTGCAG,12600 fluorescence intensity (a.u.)
8,GCATCGCCCCGCCCTGACCACTTCACCTGCCTCTCCATATCGGAGTCACCTAGTGCAG,9780 fluorescence intensity (a.u.)
9,AGTAGGTGTGTCCTTTACATTTGCTAGTCTCCACTTTCCGCGGAGTCACCTAGTGCAG,11200 fluorescence intensity (a.u.)
10,CTAACATTCCCTATGCGGAAACACACACATTCATGCACACCGGAGTCACCTAGTGCAG,8860 fluorescence intensity (a.u.)
11,GTCCTCGTTCTTTTGTGCTGGTGATTCCCAAACTGTTAAACGGAGTCACCTAGTGCAG,8030 fluorescence intensity (a.u.)
12,ATCATCCCGTCTCCGTCCTCGCCCGCCGCCGCCGCCGCCGCGGAGTCACCTAGTGCAG,9190 fluorescence intensity (a.u.)
13,CTCTCTCTCTCTCTCTCTCTCTCTCTCTTCTCCTTTCCCTCGGAGTCACCTAGTGCAG,9960 fluorescence intensity (a.u.)
14,AATCTTTCAATCTTCTTCACTCTTCAGTTTCTTTCATTCTCGGAGTCACCTAGTGCAG,9060 fluorescence intensity (a.u.)
15,CAACATACAGGGAGTTTTTACCGGCCGCCCTCTACTCTCACGGAGTCACCTAGTGCAG,9800 fluorescence intensity (a.u.)
16,ATCCACGTCATCCATGACATGGCCTCAATGTTTTCACACACGGAGTCACCTAGTGCAG,10400 fluorescence intensity (a.u.)
17,TTATTGGTAAATTTCACTTTGCTCATTTTTTTTATCATCGCGGAGTCACCTAGTGCAG,8730 fluorescence intensity (a.u.)
18,CTCTCTCTCTCTCTTCCTCACTCTCACTGTCTCACTGTCTCGGAGTCACCTAGTGCAG,10600 fluorescence intensity (a.u.)
19,GATCTTGAGCCTGCGTGGCATTGCTGTTAGTCTCACACTCCGGAGTCACCTAGTGCAG,10500 fluorescence intensity (a.u.)
20,TCCGTGGCGATTCTCATCCACGAGTTCGTCGTTTTTTTTTCGGAGTCACCTAGTGCAG,8150 fluorescence intensity (a.u.)
21,TCCCTATATGTACGATCCAATTCCTCTTTCTCCGTTTCAACGGAGTCACCTAGTGCAG,12000 fluorescence intensity (a.u.)
